Test results: patent US20200347138A1
Results are given in words; binding and its absence hold for the method and conditions named. Some binding calls cover weakened binding; strength is not graded here. For some assays here: Tags and fused reporters may be left off the sequences shown.

Protein sequences, listed by entry. Tags and fused reporters are not part of them. Lines headed by an entry give the natural chain unless they say otherwise; changes in a name come on top. Residues count along the entry.
UniProt Q60767, residues 28-1723: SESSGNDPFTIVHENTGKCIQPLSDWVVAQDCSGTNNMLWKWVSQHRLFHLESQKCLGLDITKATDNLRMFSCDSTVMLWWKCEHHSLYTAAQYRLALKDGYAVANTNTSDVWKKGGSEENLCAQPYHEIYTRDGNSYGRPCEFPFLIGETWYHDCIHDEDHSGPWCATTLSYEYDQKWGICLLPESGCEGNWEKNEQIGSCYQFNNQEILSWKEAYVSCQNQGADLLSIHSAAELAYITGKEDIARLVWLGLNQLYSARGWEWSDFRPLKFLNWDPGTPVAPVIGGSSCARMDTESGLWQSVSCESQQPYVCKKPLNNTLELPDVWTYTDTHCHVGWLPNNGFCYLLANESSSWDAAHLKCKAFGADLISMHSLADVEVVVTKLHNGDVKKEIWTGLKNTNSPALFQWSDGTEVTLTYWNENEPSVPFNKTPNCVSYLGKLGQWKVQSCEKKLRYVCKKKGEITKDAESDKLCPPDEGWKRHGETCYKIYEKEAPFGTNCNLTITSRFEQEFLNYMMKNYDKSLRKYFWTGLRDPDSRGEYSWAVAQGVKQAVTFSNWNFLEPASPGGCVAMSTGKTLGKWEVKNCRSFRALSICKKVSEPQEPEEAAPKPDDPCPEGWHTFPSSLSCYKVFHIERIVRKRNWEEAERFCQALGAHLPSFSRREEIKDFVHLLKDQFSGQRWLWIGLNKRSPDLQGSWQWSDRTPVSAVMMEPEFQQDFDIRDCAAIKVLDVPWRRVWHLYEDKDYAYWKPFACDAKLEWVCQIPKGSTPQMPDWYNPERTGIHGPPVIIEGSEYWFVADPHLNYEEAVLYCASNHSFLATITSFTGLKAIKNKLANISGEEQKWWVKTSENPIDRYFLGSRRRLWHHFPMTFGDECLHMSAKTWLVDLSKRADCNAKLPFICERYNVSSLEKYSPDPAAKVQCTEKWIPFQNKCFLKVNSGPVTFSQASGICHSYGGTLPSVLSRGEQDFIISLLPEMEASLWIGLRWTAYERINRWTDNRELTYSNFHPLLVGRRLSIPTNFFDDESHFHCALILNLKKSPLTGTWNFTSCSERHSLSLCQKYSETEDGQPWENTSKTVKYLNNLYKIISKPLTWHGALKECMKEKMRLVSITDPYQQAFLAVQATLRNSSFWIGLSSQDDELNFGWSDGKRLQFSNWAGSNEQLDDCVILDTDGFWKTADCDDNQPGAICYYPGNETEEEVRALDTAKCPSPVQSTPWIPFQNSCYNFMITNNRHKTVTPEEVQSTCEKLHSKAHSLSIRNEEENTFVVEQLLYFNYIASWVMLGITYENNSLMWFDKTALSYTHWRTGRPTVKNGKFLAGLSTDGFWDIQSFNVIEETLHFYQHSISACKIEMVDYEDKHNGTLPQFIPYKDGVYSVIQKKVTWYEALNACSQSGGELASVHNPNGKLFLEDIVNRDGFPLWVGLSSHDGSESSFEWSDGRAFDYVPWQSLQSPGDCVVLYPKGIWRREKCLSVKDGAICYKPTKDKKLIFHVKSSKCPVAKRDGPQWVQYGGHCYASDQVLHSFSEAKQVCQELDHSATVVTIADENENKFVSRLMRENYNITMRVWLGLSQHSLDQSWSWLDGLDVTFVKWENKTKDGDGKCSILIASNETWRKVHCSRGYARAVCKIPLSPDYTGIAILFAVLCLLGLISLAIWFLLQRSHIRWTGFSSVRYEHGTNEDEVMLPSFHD
UniProt O60449: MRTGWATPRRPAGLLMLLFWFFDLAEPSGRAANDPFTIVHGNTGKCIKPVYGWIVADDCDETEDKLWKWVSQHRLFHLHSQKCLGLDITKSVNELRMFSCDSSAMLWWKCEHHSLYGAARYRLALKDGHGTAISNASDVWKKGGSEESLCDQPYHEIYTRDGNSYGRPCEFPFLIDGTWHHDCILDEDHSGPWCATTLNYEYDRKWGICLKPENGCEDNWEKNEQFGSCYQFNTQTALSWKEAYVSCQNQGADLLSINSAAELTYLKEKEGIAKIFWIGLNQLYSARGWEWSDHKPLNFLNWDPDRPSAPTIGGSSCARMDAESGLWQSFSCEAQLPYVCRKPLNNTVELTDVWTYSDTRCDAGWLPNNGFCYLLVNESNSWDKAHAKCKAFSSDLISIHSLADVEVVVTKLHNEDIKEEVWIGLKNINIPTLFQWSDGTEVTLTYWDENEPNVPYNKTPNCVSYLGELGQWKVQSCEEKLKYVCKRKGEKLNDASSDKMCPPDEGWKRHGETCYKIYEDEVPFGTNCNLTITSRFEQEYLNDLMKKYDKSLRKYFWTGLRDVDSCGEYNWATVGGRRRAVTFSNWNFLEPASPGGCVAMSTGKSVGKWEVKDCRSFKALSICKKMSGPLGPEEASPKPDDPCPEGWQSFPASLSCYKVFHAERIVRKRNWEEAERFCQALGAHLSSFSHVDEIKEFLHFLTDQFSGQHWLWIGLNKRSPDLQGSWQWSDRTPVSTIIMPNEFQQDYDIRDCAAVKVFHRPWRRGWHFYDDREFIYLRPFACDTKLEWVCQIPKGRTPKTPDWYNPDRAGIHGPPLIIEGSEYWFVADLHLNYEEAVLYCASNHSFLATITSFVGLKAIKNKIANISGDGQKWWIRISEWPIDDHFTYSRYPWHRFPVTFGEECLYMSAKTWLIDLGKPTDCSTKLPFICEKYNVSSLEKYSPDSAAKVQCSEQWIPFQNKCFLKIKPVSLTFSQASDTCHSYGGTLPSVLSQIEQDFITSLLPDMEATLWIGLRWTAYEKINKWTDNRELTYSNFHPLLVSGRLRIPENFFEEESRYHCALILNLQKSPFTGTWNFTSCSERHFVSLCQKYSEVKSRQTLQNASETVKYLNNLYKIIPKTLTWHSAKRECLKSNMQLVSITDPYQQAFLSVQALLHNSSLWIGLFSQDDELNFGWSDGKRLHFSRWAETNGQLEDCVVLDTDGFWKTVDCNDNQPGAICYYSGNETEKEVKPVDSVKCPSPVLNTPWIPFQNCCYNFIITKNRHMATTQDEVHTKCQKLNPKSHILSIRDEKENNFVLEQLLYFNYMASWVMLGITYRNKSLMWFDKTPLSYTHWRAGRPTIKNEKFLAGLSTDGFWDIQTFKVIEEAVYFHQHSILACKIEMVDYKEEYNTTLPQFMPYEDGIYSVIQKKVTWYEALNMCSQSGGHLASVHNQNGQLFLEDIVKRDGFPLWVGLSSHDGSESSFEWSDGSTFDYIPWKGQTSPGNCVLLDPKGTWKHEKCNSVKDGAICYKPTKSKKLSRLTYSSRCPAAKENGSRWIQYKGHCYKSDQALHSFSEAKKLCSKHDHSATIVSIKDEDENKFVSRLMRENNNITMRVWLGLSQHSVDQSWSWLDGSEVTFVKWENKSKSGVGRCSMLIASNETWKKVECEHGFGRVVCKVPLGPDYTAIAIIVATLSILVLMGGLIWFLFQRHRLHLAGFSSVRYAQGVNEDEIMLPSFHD
UniProt P22629: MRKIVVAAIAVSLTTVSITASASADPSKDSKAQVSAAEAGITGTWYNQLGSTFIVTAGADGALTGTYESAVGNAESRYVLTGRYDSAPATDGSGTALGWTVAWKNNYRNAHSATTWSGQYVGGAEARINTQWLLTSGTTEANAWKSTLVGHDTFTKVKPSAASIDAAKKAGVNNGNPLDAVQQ

How the values were obtained:
[1] = target: mouse DEC205 (mouse) (UniProt Q60767); experiment: flow cytometry on mouse bone marrow derived dendritic cells (DEC-205 of mouse DCs)
[2] = target: T1, CR/FNII domain of canine DEC205, GST fusion protein (canine); experiment: ELISA on coated canine CR/FNII, bound hCG detected with hCG a/s and anti-rabbit IgG-HRP
T1 sequence: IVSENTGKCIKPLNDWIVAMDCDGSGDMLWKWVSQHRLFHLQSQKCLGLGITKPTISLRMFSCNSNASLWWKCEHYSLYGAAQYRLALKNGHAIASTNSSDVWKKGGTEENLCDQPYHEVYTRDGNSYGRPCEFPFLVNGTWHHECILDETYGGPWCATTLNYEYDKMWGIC

[3] = target: mouse DEC205 (mouse) (UniProt Q60767); experiment: flow cytometry on CHO/mDEC205 cells, hCG a/s and anti-rabbit IgG-FITC
[4] = target: T1, CR/FNII domain of canine DEC205, GST fusion protein (canine); experiment: ELISA, CR/FNII adsorbed on plate, ScFv-CS-hCG complex, hCG a/s and anti-rabbit IgG-HRP
[5] = target: human DEC205 (human) (UniProt O60449); experiment: flow cytometry on CHO/hDEC205 cells, hCG a/s and anti-rabbit IgG-FITC
[6] = target: human DEC205 (human) (UniProt O60449); experiment: flow cytometry on human monocyte-derived dendritic cells

Measured: binding

ScFv-CS-hCG complex of ScFv 37 (from UniProt P22629 37-163; P01215 25-116; P0DN86 21-165)
binds: [1] | [2] | [3] | [4]

ScFv-CS-hCG complex of ScFv 92 (from UniProt P22629 37-163; P01215 25-116; P0DN86 21-165)
binds: [1] | [2] | [3] | [4]

ScFv-CS-hCG complex of ScFv 83 (from UniProt P22629 37-163; P01215 25-116; P0DN86 21-165)
binds: [1] | [2] | [3] | [5] | [6] | [4]

ScFv-CS-hCG complex of ScFv 42 (from UniProt P22629 37-163; P01215 25-116; P0DN86 21-165)
binds: [1] | [2] | [3] | [4]

ScFv-CS-hCG complex of ScFv 39 (from UniProt P22629 37-163; P01215 25-116; P0DN86 21-165)
binds: [1] | [2] | [3] | [4]

ScFv-CS-hCG complex of ScFv 12 (from UniProt P22629 37-163; P01215 25-116; P0DN86 21-165)
binds: [1] | [2] | [3] | [4]
